Values quoted from earlier work, collected in article PMC7648750, “In vitro and in vivo BNCT investigations using a carborane containing sulfonamide targeting CAIX epitopes on malignant pleural mesothelioma and breast cancer cells” (Scientific Reports, 2020).

System: MCF7 cells
Details: 48 h incubation; cited from earlier work

## CC(=O)Nc1nnc(S(N)(=O)=O)s1 [AZ, 5-acetamido-1,3,4-thiadiazole-2-sulfonamide, reference compound]
  IC50: > 800 µM
